Data from PMC4889330.
For at least one entry, the source does not settle the construct or the ends of the probe.

What was measured:
[1] = tested on: GST-ARFb4 DBD (Physcomitrella patens); test: EMSA; conditions: 20 mM Tris pH 7.5, 100 mM KCl, 2 mM DTT, 5% glycerol, 0.1 NP40 (unit not given), 10 MgCl2 (unit not given), 0.5 ug poly(dI-dC), 150 fmol probe in 20 ul; recombinant protein; protein details: GST (pDEST15); label: 3' biotin
[2] = tested on: GST-ARFa8 DBD (Physcomitrella patens); test: EMSA; conditions: 20 mM Tris pH 7.5, 100 mM KCl, 2 mM DTT, 5% glycerol, 0.1 NP40 (unit not given), 10 MgCl2 (unit not given), 0.5 ug poly(dI-dC), 150 fmol probe in 20 ul; recombinant protein; protein details: GST (pDEST15); label: 3' biotin

Sequence | binding result [1] | binding result [2]
AGGGTTTGTCCGGTCTGGGAATACATATATGTTGGAGACATGCTC (double strand) [ARFb4 promoter probe (PML1108/1109)] | binds | binds
CCTTTTGTCTCCCTTTTGTCTCCCTTTTGTCTCCCTTTTGTCTC (double strand) [DR5 probe (PML839/840)] | binds | binds
GGGGAAGTGGATGAGACACAGGAGATGAGACACAATGGATGAATG (double strand) [IAA1B promoter probe (PML1068/1069)] | binds | binds
TGTGAGAGAGGGGGGGGGTGTCAGTGTCTCCGGCTTCAGTTTT (double strand) [IAA1A promoter probe (PML1082/1083)] | binds | binds
